Measured values reported in publication PMC6343231.
Results are given in words; binding and its absence hold for the method and conditions named. In cells and extracts the contact can be indirect. Some entries that bind do so weakly or less than the wild type.

Sequences of proteins named here, by UniProt entry; tags and fusion partners are left off.
UniProt P23443: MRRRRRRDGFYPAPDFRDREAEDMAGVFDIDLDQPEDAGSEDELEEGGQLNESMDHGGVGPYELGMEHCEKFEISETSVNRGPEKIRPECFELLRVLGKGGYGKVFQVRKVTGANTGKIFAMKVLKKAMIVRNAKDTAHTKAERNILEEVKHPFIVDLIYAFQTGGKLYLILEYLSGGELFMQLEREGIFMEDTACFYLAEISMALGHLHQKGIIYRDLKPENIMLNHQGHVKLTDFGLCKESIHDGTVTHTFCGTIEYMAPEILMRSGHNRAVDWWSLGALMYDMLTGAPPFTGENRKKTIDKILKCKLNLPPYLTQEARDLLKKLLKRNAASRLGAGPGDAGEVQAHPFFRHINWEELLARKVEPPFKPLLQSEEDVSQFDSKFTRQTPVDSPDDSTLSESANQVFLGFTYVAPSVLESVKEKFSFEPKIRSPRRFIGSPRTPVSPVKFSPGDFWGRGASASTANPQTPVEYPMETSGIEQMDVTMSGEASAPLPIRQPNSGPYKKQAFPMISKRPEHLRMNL

Biological target: Ribosomal protein S6 kinase 1 (S6K1) (human (endogenous in MCF-7)) (UniProt P23443)
Assay: co-IP; endogenous S6K1 precipitated from 1000 µg MCF-7 total cell lysate with anti-S6K1 mouse monoclonal antibodies on protein A/G PLUS agarose beads, overnight at 4°C; lysis buffer 20 mM Tris-HCl pH 7.5, 150 mM NaCl, 1% Triton X-100, 5 mM EDTA; three washes; blot with anti-TBR2

binding: binds
B1: T-box brain protein 2 (TBR2) (protein, UniProt O95936-4 1-705)
chain: MQLGEQLLVSSVNLPGAHFYPLESARGGSGGSAGHLPSAAPSPQKLDLDKASKKFSGSLSCEAVSGEPAAASAGAPAAMLSDTDAGDAFASAAAVAKPGPPDGRKGSPCGEEELPSAAAAAAAAAAAAAATARYSMDSLSSERYYLQSPGPQGSELAAPCSLFPYQAAAGAPHGPVYPAPNGARYPYGSMLPPGGFPAAVCPPGRAQFGPGAGAGSGAGGSSGGGGGPGTYQYSQGAPLYGPYPGAAAAGSCGGLGGLGVPGSGFRAHVYLCNRPLWLKFHRHQTEMIITKQGRRMFPFLSFNINGLNPTAHYNVFVEVVLADPNHWRFQGGKWVTCGKADNNMQGNKMYVHPESPNTGSHWMRQEISFGKLKLTNNKGANNNNTQMIVLQSLHKYQPRLHIVEVTEDGVEDLNEPSKTQTFTFSETQFIAVTAYQNTDITQLKIDHNPFAKGFRDNYDSMYTASENDRLTPSPTDSPRSHQIVPGGRYGVQSFFPEPFVNTLPQARYYNGERTVPQTNGLLSPQQSEEVANPPQRWLVTPVQQPGTNKLDISSYESEYTSSTLLPYGIKSLPLQTSHALGYYPDPTFPAMAGWGGRGSYQRKMAAGLPWTSRTSPTVFSEDQLSKEKVKEEIGSSWIETPPSIKSLDSNDSGVYTSACKRRRLSPSNSSNENSPSIKCEDINAEEYSKDTSKGMGGYYAFYTTP
